Results published in publication PMC10224957.

Molecular target: T1, Juxtaposed with another zinc finger protein 1 (JAZF1) (human (endogenous in immortalized HESCs)) (UniProt Q86VZ6)
T1 sequence: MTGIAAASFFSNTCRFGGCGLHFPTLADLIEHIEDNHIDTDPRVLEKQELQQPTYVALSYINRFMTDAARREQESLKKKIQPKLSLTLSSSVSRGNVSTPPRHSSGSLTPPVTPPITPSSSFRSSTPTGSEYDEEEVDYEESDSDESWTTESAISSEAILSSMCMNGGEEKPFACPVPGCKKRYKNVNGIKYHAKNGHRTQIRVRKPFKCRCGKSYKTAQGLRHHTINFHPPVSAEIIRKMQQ
Test: affinity purification with mass spectrometry; IP with JAZF1-conjugated protein A + G magnetic beads from immortalized HESCs treated with MPA and cAMP for 6 days; bands that differ between JAZF1 and IgG control cut from SDS-PAGE; LC-MS

B1: Purβ (protein, UniProt Q96QR8 1-312)
chain: MADGDSGSERGGGGGPCGFQPASRGGGEQETQELASKRLDIQNKRFYLDVKQNAKGRFLKIAEVGAGGSKSRLTLSMAVAAEFRDSLGDFIEHYAQLGPSSPEQLAAGAEEGGGPRRALKSEFLVRENRKYYLDLKENQRGRFLRIRQTVNRGGGGFGAGPGPGGLQSGQTIALPAQGLIEFRDALAKLIDDYGGEDDELAGGPGGGAGGPGGGLYGELPEGTSITVDSKRFFFDVGCNKYGVFLRVSEVKPSYRNAITVPFKAWGKFGGAFCRYADEMKEIQERQRDKLYERRGGGSGGGEESEGEEVDED
For B1, the binding was “binds”.

Results are given in words; binding and its absence hold for the method and conditions named. Binding seen in cells or lysates may run through a third protein. A yes stands for co-enrichment or nearness to the bait. Other partners may have been found.
